Measurements: the supplement of paper PMC10849652
The list shows a part of the results.

Sequences of proteins named here, by UniProt entry; tags and fusion partners are left off. A change or cut given only in a name is not applied to a line headed by its entry.
UniProt Q8WVD5: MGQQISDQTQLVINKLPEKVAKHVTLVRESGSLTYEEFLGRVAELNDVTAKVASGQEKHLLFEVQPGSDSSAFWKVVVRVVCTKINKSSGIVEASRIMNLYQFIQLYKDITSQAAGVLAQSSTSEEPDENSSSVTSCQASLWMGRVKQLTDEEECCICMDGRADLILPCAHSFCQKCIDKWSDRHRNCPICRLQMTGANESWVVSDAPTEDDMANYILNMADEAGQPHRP
UniProt Q8NCN4: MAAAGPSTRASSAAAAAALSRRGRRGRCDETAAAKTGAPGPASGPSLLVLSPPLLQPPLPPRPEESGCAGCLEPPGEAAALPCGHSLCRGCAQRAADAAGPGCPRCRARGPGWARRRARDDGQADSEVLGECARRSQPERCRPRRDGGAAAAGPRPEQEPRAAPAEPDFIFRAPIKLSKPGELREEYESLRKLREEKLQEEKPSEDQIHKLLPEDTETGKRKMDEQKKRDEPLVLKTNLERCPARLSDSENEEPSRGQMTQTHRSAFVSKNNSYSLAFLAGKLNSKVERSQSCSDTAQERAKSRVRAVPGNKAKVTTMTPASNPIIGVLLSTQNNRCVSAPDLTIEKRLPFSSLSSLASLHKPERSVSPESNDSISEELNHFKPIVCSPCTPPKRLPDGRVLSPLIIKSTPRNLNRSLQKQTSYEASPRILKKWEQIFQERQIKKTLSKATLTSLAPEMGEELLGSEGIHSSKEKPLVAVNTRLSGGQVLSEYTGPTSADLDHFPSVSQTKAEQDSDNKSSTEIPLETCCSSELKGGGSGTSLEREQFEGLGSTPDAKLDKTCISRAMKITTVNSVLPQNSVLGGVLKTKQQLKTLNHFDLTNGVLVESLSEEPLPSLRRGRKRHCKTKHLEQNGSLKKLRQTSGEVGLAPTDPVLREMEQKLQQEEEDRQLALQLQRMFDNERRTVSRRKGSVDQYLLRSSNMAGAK
UniProt Q6PCD5: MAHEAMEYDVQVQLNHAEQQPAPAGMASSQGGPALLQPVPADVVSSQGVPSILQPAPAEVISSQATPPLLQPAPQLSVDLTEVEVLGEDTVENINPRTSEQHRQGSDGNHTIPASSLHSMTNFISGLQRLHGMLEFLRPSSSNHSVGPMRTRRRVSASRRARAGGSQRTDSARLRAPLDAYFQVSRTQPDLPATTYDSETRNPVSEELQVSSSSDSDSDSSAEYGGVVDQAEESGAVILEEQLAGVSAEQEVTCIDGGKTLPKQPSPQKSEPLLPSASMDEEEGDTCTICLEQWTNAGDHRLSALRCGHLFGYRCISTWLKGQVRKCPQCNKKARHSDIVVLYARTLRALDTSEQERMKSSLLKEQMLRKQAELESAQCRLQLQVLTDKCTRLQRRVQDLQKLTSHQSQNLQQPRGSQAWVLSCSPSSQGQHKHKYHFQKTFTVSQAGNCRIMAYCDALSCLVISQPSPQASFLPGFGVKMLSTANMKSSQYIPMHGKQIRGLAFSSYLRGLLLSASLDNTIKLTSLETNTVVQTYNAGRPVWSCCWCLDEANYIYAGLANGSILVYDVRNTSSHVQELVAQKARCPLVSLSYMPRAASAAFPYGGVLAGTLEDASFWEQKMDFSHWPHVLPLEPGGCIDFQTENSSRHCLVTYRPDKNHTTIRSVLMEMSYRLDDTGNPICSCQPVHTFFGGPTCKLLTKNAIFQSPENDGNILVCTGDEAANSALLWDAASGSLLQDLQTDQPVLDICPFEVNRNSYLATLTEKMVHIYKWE
UniProt Q96EN9: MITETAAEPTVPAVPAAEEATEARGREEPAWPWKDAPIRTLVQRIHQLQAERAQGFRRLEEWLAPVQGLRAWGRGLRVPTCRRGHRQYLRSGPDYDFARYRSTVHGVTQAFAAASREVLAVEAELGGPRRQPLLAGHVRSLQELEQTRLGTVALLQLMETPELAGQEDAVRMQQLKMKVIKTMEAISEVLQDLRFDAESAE
UniProt Q9NVW2: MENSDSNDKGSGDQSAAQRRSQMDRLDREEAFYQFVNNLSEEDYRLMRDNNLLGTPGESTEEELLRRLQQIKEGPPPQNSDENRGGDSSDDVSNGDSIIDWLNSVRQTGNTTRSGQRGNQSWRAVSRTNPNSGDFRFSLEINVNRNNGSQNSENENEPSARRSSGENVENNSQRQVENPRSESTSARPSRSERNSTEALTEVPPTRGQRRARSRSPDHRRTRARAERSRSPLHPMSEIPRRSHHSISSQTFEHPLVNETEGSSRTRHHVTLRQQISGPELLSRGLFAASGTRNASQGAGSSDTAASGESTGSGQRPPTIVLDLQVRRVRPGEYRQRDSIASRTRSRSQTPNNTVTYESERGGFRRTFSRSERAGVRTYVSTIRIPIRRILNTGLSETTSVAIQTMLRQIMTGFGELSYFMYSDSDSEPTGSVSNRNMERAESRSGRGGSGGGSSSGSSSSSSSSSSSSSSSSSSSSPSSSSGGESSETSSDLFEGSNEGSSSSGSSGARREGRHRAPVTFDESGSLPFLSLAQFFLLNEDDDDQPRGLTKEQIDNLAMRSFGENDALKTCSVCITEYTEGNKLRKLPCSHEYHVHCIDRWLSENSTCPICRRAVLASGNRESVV
UniProt Q8WU17: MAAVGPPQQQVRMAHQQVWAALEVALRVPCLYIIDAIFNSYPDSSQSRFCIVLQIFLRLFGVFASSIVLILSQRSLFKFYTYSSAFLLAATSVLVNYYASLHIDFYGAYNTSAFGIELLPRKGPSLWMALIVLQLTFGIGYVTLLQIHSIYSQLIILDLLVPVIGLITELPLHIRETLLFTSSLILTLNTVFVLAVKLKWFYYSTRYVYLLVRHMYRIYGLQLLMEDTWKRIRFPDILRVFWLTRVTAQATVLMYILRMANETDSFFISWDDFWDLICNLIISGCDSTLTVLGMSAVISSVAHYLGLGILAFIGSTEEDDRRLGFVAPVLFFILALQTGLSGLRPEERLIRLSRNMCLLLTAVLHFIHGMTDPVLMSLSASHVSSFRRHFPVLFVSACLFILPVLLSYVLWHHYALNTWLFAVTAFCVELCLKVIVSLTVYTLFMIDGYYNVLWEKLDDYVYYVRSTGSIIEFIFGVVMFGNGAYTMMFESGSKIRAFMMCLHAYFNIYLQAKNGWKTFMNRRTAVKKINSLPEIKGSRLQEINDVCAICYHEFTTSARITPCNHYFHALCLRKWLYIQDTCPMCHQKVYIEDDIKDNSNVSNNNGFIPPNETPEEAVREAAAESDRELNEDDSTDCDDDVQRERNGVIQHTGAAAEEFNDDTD
UniProt O94762: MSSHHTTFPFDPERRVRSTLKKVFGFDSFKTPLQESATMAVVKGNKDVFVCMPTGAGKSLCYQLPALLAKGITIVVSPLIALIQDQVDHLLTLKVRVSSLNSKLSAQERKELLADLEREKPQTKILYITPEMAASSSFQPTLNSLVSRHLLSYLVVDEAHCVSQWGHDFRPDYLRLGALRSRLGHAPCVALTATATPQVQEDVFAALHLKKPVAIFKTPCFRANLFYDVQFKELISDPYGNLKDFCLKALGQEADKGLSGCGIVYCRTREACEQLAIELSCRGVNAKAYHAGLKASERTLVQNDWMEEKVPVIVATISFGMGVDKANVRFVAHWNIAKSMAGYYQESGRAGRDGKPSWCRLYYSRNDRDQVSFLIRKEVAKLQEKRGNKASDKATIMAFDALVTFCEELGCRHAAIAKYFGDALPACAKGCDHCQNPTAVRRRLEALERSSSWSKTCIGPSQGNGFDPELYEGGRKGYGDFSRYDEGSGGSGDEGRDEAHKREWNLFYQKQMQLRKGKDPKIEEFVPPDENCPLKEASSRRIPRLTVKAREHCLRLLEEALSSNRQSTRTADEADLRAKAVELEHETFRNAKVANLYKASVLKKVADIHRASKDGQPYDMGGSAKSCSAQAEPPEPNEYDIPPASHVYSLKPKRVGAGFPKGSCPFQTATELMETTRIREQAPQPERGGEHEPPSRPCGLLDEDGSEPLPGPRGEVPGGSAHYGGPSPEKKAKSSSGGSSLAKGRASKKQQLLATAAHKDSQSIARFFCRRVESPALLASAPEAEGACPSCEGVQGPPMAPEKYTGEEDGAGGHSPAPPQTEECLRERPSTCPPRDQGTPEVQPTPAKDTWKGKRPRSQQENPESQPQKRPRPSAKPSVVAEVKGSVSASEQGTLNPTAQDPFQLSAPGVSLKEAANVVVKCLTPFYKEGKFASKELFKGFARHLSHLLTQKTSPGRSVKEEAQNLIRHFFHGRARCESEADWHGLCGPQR
UniProt Q6R327, whole entry, looked up: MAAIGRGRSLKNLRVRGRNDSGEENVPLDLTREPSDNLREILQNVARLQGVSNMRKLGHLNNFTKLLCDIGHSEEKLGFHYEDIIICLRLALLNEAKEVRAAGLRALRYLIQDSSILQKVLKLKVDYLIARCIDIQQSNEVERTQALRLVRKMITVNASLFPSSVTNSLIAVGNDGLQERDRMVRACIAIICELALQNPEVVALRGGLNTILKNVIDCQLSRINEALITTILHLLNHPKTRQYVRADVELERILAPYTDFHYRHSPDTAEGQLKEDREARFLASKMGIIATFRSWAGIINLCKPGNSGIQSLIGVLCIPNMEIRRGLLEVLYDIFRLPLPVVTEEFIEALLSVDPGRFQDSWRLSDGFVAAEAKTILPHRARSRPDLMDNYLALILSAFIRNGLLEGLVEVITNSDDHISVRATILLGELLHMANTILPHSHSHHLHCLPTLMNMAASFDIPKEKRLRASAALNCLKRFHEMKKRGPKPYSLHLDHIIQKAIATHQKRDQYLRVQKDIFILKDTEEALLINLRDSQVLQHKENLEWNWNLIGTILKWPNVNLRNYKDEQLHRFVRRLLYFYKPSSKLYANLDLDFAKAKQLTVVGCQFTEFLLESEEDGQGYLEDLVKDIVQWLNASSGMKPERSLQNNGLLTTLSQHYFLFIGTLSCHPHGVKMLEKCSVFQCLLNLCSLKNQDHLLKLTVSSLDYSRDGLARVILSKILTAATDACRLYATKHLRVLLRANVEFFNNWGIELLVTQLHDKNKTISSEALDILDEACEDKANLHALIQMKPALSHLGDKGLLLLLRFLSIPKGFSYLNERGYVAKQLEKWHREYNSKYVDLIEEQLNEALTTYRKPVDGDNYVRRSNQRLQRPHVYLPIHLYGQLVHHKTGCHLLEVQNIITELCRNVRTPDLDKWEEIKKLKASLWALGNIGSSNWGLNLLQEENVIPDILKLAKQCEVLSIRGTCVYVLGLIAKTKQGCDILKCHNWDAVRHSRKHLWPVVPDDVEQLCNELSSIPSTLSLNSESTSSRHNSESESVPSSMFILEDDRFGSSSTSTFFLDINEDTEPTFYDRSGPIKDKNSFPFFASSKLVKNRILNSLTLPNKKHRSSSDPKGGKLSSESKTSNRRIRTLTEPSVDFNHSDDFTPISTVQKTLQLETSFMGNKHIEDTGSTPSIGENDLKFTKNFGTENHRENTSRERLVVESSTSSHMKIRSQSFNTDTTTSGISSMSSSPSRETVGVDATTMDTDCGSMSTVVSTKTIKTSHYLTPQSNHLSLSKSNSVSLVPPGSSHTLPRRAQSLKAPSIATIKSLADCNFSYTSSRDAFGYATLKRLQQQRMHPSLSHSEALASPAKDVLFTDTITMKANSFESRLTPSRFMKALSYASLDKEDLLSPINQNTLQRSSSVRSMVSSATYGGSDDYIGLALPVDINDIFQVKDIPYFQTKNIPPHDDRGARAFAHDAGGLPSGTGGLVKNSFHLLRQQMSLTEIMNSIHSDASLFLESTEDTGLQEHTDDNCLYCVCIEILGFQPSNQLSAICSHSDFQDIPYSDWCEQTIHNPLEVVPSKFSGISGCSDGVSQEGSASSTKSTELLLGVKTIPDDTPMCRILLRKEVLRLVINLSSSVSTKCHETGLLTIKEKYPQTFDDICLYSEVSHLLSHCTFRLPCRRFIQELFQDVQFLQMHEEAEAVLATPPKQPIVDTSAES
UniProt Q96A37: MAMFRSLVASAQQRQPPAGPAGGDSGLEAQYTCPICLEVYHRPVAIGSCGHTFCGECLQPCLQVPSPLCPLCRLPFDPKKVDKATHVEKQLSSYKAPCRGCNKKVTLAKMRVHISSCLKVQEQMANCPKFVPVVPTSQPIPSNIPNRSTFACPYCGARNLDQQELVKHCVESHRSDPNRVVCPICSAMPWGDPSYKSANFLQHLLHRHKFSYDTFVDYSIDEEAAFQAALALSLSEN
UniProt Q5RL73: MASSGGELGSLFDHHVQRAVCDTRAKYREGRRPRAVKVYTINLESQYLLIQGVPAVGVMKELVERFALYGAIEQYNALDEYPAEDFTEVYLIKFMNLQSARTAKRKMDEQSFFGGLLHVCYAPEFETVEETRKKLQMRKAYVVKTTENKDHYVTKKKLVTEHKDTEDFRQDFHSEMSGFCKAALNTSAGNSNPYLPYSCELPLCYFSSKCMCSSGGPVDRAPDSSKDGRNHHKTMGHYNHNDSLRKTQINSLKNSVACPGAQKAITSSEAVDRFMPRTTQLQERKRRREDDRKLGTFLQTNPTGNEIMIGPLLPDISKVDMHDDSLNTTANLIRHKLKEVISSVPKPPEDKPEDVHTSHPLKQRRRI

Legend:
Experiment in all cases: log2 fold change, soluble protein after heating vs DMSO (PISA); higher = thermal stabilisation; K562 cells, 10 uM, 30 min; active = over 0.2 and 3.5 SD of the protein, either way, in both replicates (recomputed)
[1] = compound: C1=CC=C(C=C1)[C@H](COC2=CC3=C(C=C2)NC(=O)N3)NC(=O)C4=CC=CN(C4=O)CC5=CC(=C(C=C5)F)F
Summary of the method: (§1)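 For each measurement, 10 μM compound was applied for 30 min to K562 cells at 2×10^6 cells/mL. Aliquots were heated for 3 min across 48°C-58°C, pooled, and extracted in PBS with 0.5% NP-40 at 4°C; the supernatant after 21,000xg for 90 min was soluble protein. This was quantified by TMTpro 16plex LC-MS/MS with channel sums equalised, and thermal stability was reported relative to control samples from duplicates, on a log2 fold-change scale.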

[2] = compound: CC1=C(SC2=C1C(=N[C@H](C3=NN=C(N32)C)CC(=O)N)C4=CC=C(C=C4)Cl)C
Summary of the method: as §1

[3] = compound: CC1=C2C(=CC=C1)N=C(N(C2=O)C3=CC=CC=C3C)CN4C=NC5=C(N=CN=C54)N
Summary of the method: as §1

[4] = compound: c1ccc([C@@H]2C[C@H]2NC2CCNCC2)cc1
Summary of the method: as §1

[5] = compound: Cc1sc2c(c1C)C(c1ccc(Cl)cc1)=N[C@@H](CC(=O)OC(C)(C)C)c1nnc(C)n1-2
Summary of the method: as §1

Measured: log2 fold change

RNF170 (UniProt Q96K19)
inactive: [1] -0.084 | [2] -0.003 | [3] 0.18 | [4] 0.053

RNF141 (UniProt Q8WVD5)
inactive: [1] 0.055 | [3] -0.093 | [5] 0.055

RIF1 (UniProt Q5UIP0)
inactive: [2] -0.206 | [3] -0.153 | [5] 0.015 | [4] 0.053

RNF130 (UniProt Q86XS8)
inactive: [1] 0.042 | [2] 0.092 | [4] 0.01

RC3H2 (UniProt Q9HBD1)
inactive: [5] 0.085

RNF169 (UniProt Q8NCN4)
inactive: [2] -0.068 | [5] -0.14 | [4] -0.019

RMI2 (UniProt Q96E14)
inactive: [2] -0.222 | [3] -0.052 | [5] -0.216 | [4] 0.009

RFWD3 (UniProt Q6PCD5)
inactive: [2] 0.028 | [3] 0.197 | [4] 0.091

REX1BD (UniProt Q96EN9)
inactive: [2] 0.01 | [4] -0.264

RILPL1 (UniProt Q5EBL4)
inactive: [2] -0.065 | [3] 0.131 | [5] -0.029 | [4] -0.207

RGN (UniProt Q15493)
inactive: [3] 0.036 | [5] -0.119

RCL1 (UniProt Q5VZU2)
inactive: [5] 0.095

RBP5 (UniProt P82980)
inactive: [1] -0.028 | [2] 0.068 | [5] 0.051 | [4] 0.029

RBM6 (UniProt P78332)
inactive: [2] -0.075 | [5] 0.012 | [4] 0.076

RLIM (UniProt Q9NVW2)
inactive: [2] 0.436 | [3] 0.145 | [5] -0.215 | [4] -0.389

RNF139 (UniProt Q8WU17)
inactive: [1] -0.071 | [3] 0.069 | [5] -0.262

RECQL5 (UniProt O94762)
inactive: [2] 0.021 | [3] 0.137 | [4] 0.034

RGS14 (UniProt O43566)
inactive: [1] -0.005 | [2] 0.043 | [3] 0.391 | [5] 0.171 | [4] 0.105

RICTOR isoform 3 (UniProt Q6R327)
inactive: [5] 0.043

RBMY1E (UniProt A6NEQ0)
inactive: [1] 0.063 | [2] -0.02 | [5] 0.001 | [4] 0.145

RBSN (UniProt Q9H1K0)
inactive: [1] 0.05 | [3] 0.171 | [5] -0.031

RBM7 (UniProt Q9Y580)
inactive: [2] -0.117 | [3] 0.015 | [5] -0.029 | [4] -0.06

RNF166 (UniProt Q96A37)
inactive: [2] 0.03 | [3] -0.06 | [5] -0.055 | [4] 0.037

2 records drawn at random from those above, as already listed:
RBM7 (UniProt Q9Y580)
inactive: [2] -0.117 | [3] 0.015 | [5] -0.029 | [4] -0.06

RICTOR isoform 3 (UniProt Q6R327)
inactive: [5] 0.043

Next part:

RBM48 isoform 2 (UniProt Q5RL73)
inactive: [1] 0.008 | [2] 0.058 | [5] -0.36 | [4] 0.113
